The test deals with GFP-SERCA2a (human) (UniProt P16615). Nature of the test: FRET or BRET.

By UniProt entry, the sequences of proteins in these tests, tags left out. Where a name states a change or a piece, a line headed by the entry shows the natural chain unless it says otherwise. Chains listed by the source or under a name are the forms on record and can include a tag or linker.
GFP-SERCA2a (P16615, form named): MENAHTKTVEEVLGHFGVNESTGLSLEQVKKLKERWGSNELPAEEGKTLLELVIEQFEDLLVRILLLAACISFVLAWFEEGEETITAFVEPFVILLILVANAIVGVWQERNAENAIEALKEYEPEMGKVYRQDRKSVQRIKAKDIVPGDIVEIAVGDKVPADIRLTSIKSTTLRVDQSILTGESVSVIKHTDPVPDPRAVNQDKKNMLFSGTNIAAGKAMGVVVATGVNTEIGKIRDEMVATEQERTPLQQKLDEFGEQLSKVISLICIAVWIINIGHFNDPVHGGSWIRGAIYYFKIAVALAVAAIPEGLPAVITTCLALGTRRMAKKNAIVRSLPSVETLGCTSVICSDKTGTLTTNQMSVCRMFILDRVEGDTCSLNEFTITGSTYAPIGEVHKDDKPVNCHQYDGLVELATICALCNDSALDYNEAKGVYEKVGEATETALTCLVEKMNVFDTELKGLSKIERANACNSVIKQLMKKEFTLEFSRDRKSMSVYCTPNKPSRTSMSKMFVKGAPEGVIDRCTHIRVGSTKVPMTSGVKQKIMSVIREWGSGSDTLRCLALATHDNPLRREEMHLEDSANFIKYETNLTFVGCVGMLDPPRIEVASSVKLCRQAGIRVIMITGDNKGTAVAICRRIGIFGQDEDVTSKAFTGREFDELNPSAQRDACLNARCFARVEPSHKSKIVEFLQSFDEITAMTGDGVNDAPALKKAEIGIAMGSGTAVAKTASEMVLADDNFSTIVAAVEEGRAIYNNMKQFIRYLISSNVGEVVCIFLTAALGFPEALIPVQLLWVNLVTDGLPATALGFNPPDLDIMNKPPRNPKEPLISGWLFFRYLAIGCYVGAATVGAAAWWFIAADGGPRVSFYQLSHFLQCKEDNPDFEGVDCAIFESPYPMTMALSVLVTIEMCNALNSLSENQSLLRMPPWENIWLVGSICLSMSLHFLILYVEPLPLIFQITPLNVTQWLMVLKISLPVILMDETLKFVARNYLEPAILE
UniProt P26678: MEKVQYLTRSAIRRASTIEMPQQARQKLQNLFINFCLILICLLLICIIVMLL

No constants are given. Whether binding was seen depends on the method and setting. Binding seen in cells or lysates may run through a third protein. Some binding calls cover weakened binding; strength is not graded here.

As to RFP-PLB (from UniProt P26678 1-52), the binding result is on record as “binds”.

For the origin of these results see publication doi:10.1101/2020.09.18.303644.
